We go through one substance from article PMC5216965.

Sequences of proteins named here, by UniProt entry; tags and fusion partners are left off. A change or cut given only in a name is not applied to a line headed by its entry.
UniProt Q8N726: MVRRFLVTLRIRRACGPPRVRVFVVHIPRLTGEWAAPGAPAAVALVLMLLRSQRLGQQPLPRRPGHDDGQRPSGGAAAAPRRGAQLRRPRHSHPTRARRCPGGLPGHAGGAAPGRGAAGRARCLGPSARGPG
UniProt P09237: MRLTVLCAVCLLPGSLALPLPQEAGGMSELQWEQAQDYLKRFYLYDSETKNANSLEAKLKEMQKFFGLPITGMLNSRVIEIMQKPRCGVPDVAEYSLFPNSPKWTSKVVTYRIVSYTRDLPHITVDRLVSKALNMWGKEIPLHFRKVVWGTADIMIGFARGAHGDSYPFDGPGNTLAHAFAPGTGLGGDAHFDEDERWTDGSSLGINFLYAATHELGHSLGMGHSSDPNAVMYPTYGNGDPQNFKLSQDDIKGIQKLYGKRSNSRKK

These are yes or no findings as the source states them, for the method shown. In cells and extracts the contact can be indirect. A result given as binding can be weak or reduced; the word gives no strength.

This assay deals with Myc-tagged p14^ARF (human) (UniProt Q8N726). Put plainly: co-IP; HEK293T cells co-transfected with GFP-MMP7 and Myc-p14^ARF; lysates collected 48 hrs post-transfection in RIPA buffer (1X PBS pH 7.4, 2 mM EDTA, 1% Triton X-100, 0.5% sodium deoxycholate, protease inhibitor); immunoprecipitated with anti-Myc or anti-GFP for 1 hr in cold room, A/G plus agarose beads, IgG as control; Western blot. In general terms: Immunoblotting shows a protein as a band on a membrane.

In the case of GFP-tagged MMP7 (from UniProt P09237), the binding entry was “binds”.
